Values from PubChem BioAssay AID1671195 (Yale University, 2021)
Assay: 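Genes whose knockdown alters LDL uptake in liver cancer cells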 (primary screen). System: human Huh7 hepatoma cells. Reagent: siRNA pool against human genes, 18 nM. Time to read-out: about 2 to 2.5 days of knockdown, then 8 h LDL uptake. Challenge: DiI-labelled LDL at 30 µg/ml for 8 h, in lipoprotein-deficient serum medium. Detection: 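Per-cell DiI-LDL intensity by automated imaging; well means scaled to the plate median and given as a robust z-score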. Direction: robust z-score: higher = more LDL uptake after knockdown. Rule for the call: 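Active when two or more replicates show a robust z-score above 2 or below -2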.
Here is an unselected part of about 22,000 deposited reagents. About 1,510 of them (6.9%) count as active. 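Active includes knockdowns raising or lowering LDL uptake; positive z-scores mean more uptake, negative mean less.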 Unmarked entries are inactive.

{"gene symbol": "TTI1", "PubChem SID": "SID442902485", "robust z-score, replicate 1": -1.55, "robust z-score, replicate 2": -1.17, "robust z-score, replicate 3": -0.54}
{"gene symbol": "HSP90AB1", "PubChem SID": "SID442895427", "robust z-score, replicate 1": -0.141, "robust z-score, replicate 2": -0.0674, "robust z-score, replicate 3": -0.294}
{"gene symbol": "TBK1", "PubChem SID": "SID442892008", "robust z-score, replicate 1": 0.145, "robust z-score, replicate 2": -0.0357, "robust z-score, replicate 3": 0.551}
{"gene symbol": "LINC01443", "PubChem SID": "SID442896312", "robust z-score, replicate 1": -0.201, "robust z-score, replicate 2": -0.351, "robust z-score, replicate 3": -0.225}
{"gene symbol": "OR10G2", "PubChem SID": "SID442900947", "robust z-score, replicate 1": -0.356, "robust z-score, replicate 2": -1.7, "robust z-score, replicate 3": -0.43}
{"gene symbol": "NREP", "PubChem SID": "SID442904039", "robust z-score, replicate 1": -1.45, "robust z-score, replicate 2": -1.22, "robust z-score, replicate 3": -1.74}
{"gene symbol": "USP11", "PubChem SID": "SID442884849", "robust z-score, replicate 1": 1.78, "robust z-score, replicate 2": 1.73, "robust z-score, replicate 3": 2}
{"gene symbol": "ARMC3", "PubChem SID": "SID442890071", "robust z-score, replicate 1": 0.568, "robust z-score, replicate 2": 0.567, "robust z-score, replicate 3": 0.268}
{"gene symbol": "KRT75", "PubChem SID": "SID442883891", "robust z-score, replicate 1": "2.49 (active)", "robust z-score, replicate 2": 1.51, "robust z-score, replicate 3": 2.56}
{"gene symbol": "NPAS3", "PubChem SID": "SID442890461", "robust z-score, replicate 1": -0.294, "robust z-score, replicate 2": 1.1, "robust z-score, replicate 3": 0.437}
{"gene symbol": "TAS1R1", "PubChem SID": "SID442899137", "robust z-score, replicate 1": -0.698, "robust z-score, replicate 2": -0.671, "robust z-score, replicate 3": -0.375}
{"gene symbol": "LOC344172 (retired record)", "PubChem SID": "SID442891374", "robust z-score, replicate 1": 0.408, "robust z-score, replicate 2": 0.271, "robust z-score, replicate 3": 0.203}

Targets above whose target name begins with T or t (3):
{"gene symbol": "TTI1", "PubChem SID": "SID442902485", "robust z-score, replicate 1": -1.55, "robust z-score, replicate 2": -1.17, "robust z-score, replicate 3": -0.54}
{"gene symbol": "TBK1", "PubChem SID": "SID442892008", "robust z-score, replicate 1": 0.145, "robust z-score, replicate 2": -0.0357, "robust z-score, replicate 3": 0.551}
{"gene symbol": "TAS1R1", "PubChem SID": "SID442899137", "robust z-score, replicate 1": -0.698, "robust z-score, replicate 2": -0.671, "robust z-score, replicate 3": -0.375}
